Measured values published in US11059853B2, “Crystalline or amorphous form of steroid derivative FXR agonist, preparation method therefor and use thereof” (Chia Tai Tianqing Pharmaceutical Group Co., Ltd., priority 2017, dated 2021).
Some of these results come from one statement about several compounds together.

Experiment: Test for hygroscopicity, Dynamic Vapor Sorption (DVS)
Assay type: physicochemical
Settings: 25±1° C., 80±2% RH
Description: Dynamic Vapor Sorption (DVS) analysis was performed on crystalline Form A and the solid amorphous form of the compound of formula I by the following process and conditions: the samples (10 to 15 mg) were placed in the sample pan; instrument model: SMS DVS Advantage Dynamic Vapor Sorption; temperature: 25° C.; balance: dm/dt=0.01%/min (Min: 10 min, Max: 180 min); drying: for 120 min at 0% RH; RH (%) gradient for testing: 10%; the RH (%) range for gradient testing: 0%-90%-0%. The hygroscopicity was evaluated using the following scale: […]

Structure (SMILES) | hygroscopicity scale
CC[C@H]1[C@@H](O)[C@@H]2[C@H](CC[C@]3(C)[C@@H]([C@H](C)CCOc4ncc(C(=O)O)cc4Cl)CC[C@@H]23)[C@@]2(C)CC[C@@H](O)C[C@@H]12 [solid amorphous form of the compound of formula I] | slight hygroscopicity (2% > ΔW % ≥ 0.2%)
CC[C@H]1[C@@H](O)[C@@H]2[C@H](CC[C@]3(C)[C@@H]([C@H](C)CCOc4ncc(C(=O)O)cc4Cl)CC[C@@H]23)[C@@]2(C)CC[C@@H](O)C[C@@H]12 [crystalline Form A] | slight hygroscopicity (2% > ΔW % ≥ 0.2%)
